PubChem BioAssay AID1259405 – NCATS | 2018
In all, the deposit lists about 50,000 reagents; shown is a part drawn at random. Of all reagents, about 4,000 (8%) are marked active. 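Mouse siRNA library applied to hamster cells; one well for each siRNA.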 Reagents against one gene are numbered here.

- Aim: 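Mouse-designed siRNAs used to find CHO productivity engineering targets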 (primary screen)
- Cells: Chinese hamster CHO-K1 ovary cells with stable secreted eGFP expression
- Reagent: single siRNA against mouse genes, 0.8 pmol siRNA per well (2 µl of 400 nM stock)
- Duration: 3 days
- Measurement: 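Per-well intracellular GFP measured by laser scanning cytometry, plus viability from ATP luminescence, each relative to plate median of non-targeting control wells, in %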
- Direction: GFP, % of control: higher = more GFP per well, higher productivity; viability (ATP), % of control: higher = more viable cells (more ATP)
- Hit rule: 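a knock-down is called active if GFP reaches 120% or more of non-targeting control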

Serpina9 #1 scored GFP, % of control 88.1; viability (ATP), % of control 100; inactive.
Silencing of Serpina9 #2 came out at: GFP, % of control 132; viability (ATP), % of control 78.9; active.
For Serpina9 #3, the entry reads GFP, % of control 56.3; viability (ATP), % of control 78.6; inactive.
After knock-down of Nat10 (N-acetyltransferase 10) #1, the screen gave GFP, % of control 119; viability (ATP), % of control 91.1; inactive.
With knock-down of Nat10 (N-acetyltransferase 10) #2, the record shows GFP, % of control 110; viability (ATP), % of control 137; inactive.
Against Nat10 (N-acetyltransferase 10) #3, the entry reads GFP, % of control 142; viability (ATP), % of control 91.7; active.
Cdh2 (cadherin 2) #1 gave GFP, % of control 61.5; viability (ATP), % of control 64.5; inactive.
Depletion of Cdh2 (cadherin 2) #2 came out at: GFP, % of control 104; viability (ATP), % of control 62.8; inactive.
Depletion of Cdh2 (cadherin 2) #3 gave: GFP, % of control 112; viability (ATP), % of control 56.6; inactive.
Vpreb1a (V-set pre-B cell surrogate light chain 1A) #1 showed GFP, % of control 37.3; viability (ATP), % of control 44.5; inactive.
Silencing of Vpreb1a (V-set pre-B cell surrogate light chain 1A) #2 came out at: GFP, % of control 80.1; viability (ATP), % of control 50.3; inactive.
Vpreb1a (V-set pre-B cell surrogate light chain 1A) #3 scored GFP, % of control 82.2; viability (ATP), % of control 70.2; inactive.
For Melk (maternal embryonic leucine zipper kinase), the values are GFP, % of control 51.6; viability (ATP), % of control 76.9; inactive.
Cenpt (centromere protein T) #1 gave GFP, % of control 62.9; viability (ATP), % of control 79.2; inactive.
Knock-down of Cenpt (centromere protein T) #2 came out at: GFP, % of control 20.4; viability (ATP), % of control 15.4; inactive.
Silencing of Cenpt (centromere protein T) #3 gave: GFP, % of control 101; viability (ATP), % of control 81.7; inactive.
Nt5dc1 (5'-nucleotidase domain containing 1) #1 gave GFP, % of control 89.4; viability (ATP), % of control 85; inactive.
For Nt5dc1 (5'-nucleotidase domain containing 1) #2 the deposit lists GFP, % of control 56.1; viability (ATP), % of control 43.9; inactive.
After knock-down of Nt5dc1 (5'-nucleotidase domain containing 1) #3 the results were GFP, % of control 84.7; viability (ATP), % of control 71.8; inactive.
With knock-down of Dhrs7 (dehydrogenase/reductase 7) #1 the results were GFP, % of control 121; viability (ATP), % of control 93.8; active.
Knock-down of Dhrs7 (dehydrogenase/reductase 7) #2 gave: GFP, % of control 57.4; viability (ATP), % of control 73.6; inactive.
Dhrs7 (dehydrogenase/reductase 7) #3 gave GFP, % of control 79.1; viability (ATP), % of control 61.9; inactive.
After knock-down of Or9s15 (olfactory receptor family 9 subfamily S member 15) #1, the record shows GFP, % of control 75.7; viability (ATP), % of control 76.6; inactive.
Against Or9s15 (olfactory receptor family 9 subfamily S member 15) #2, the values are GFP, % of control 63.2; viability (ATP), % of control 73.9; inactive.
Against Or9s15 (olfactory receptor family 9 subfamily S member 15) #3, the values are GFP, % of control 59.1; viability (ATP), % of control 54.3; inactive.
Lrrtm1 (leucine rich repeat transmembrane neuronal 1) #1 showed GFP, % of control 60.7; viability (ATP), % of control 43.1; inactive.
Knock-down of Lrrtm1 (leucine rich repeat transmembrane neuronal 1) #2 came out at: GFP, % of control 76.2; viability (ATP), % of control 79; inactive.
For Lrrtm1 (leucine rich repeat transmembrane neuronal 1) #3, the entry reads GFP, % of control 87.7; viability (ATP), % of control 94.7; inactive.

Reformatted: entries from further up
{"gene symbol":"Nat10 (N-acetyltransferase 10)","reagent":1,"GFP, % of control":119,"viability (ATP), % of control":91.1,"Outcome":"inactive"}
{"gene symbol":"Nat10 (N-acetyltransferase 10)","reagent":2,"GFP, % of control":110,"viability (ATP), % of control":137,"Outcome":"inactive"}
{"gene symbol":"Nat10 (N-acetyltransferase 10)","reagent":3,"GFP, % of control":142,"viability (ATP), % of control":91.7,"Outcome":"active"}
{"gene symbol":"Cdh2 (cadherin 2)","reagent":1,"GFP, % of control":61.5,"viability (ATP), % of control":64.5,"Outcome":"inactive"}
